Measurements: patent publication US20090061481
Protein sequences can lack the tags named with them.

What was measured:
[1] = target: T1, Pfu DNA ligase variant Dala (D540A/Q547A/K554A/K558A) (Pyrococcus furiosus) (UniProt P56709); assay: activity assay; conditions: 5'-phosphate on 30mer; ligation efficiency higher than wild type at 30 C and 80 C; purified recombinant protein; label: 5'-TET on 20mer
T1 sequence (limits assumed): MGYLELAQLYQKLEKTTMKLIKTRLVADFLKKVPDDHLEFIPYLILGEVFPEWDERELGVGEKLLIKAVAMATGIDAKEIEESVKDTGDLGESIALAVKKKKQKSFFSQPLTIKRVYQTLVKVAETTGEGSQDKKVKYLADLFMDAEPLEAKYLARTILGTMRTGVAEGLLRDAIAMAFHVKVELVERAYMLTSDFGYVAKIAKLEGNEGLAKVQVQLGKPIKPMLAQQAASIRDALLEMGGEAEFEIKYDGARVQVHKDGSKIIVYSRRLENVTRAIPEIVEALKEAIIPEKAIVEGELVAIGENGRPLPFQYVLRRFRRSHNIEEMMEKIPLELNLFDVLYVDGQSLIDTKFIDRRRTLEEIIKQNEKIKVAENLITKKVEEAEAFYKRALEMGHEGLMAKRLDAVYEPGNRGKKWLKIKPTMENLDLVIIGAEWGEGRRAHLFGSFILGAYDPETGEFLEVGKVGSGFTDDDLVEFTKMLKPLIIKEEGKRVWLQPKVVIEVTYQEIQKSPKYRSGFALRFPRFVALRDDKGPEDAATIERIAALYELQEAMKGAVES

[2] = target: T2, Pfu DNA ligase variant DΔ12 (D540A/Q547A, C-terminal 12 residues deleted) (Pyrococcus furiosus) (UniProt P56709); assay: activity assay; conditions: 5'-phosphate on 30mer; ligation efficiency higher than wild type at 20 C, 30 C and 80 C; purified recombinant protein; label: 5'-TET on 20mer
T2 sequence: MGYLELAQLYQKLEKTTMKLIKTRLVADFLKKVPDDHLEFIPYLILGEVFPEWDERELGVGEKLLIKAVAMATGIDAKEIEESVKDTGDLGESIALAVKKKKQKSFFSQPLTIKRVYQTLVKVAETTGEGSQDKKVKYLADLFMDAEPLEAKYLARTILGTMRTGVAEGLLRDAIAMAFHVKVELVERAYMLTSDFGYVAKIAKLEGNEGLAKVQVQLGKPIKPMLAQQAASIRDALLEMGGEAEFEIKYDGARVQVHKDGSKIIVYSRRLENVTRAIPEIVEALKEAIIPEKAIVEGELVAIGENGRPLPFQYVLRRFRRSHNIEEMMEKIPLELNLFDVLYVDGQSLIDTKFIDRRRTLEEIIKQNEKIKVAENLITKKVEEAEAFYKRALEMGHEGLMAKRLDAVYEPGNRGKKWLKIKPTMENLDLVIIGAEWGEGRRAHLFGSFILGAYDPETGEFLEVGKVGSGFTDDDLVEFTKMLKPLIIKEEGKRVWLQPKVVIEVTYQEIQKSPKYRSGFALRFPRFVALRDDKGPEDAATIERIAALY

For “AAACGGGCCGGTCAACAATCCTCTGGAGTCGACCTGTAGGAATGCAAGCTTGGCGTCACG / AGGTCGACTCCAGAGGATTGTTGACCGGCC / CGCCAAGCTTGCATTCCTAC [nicked ligation substrate 60mer/30mer/20mer]”, the “activity on this sequence” value [1] was “active” and the “activity on this sequence” value [2] was “active”.
